Results: the supplement of paper PMC8326762, “A Small Molecule Inhibitor of Pex3–Pex19 Interaction Disrupts Glycosome Biogenesis and Causes Lethality in Trypanosoma brucei” (Frontiers in Cell and Developmental Biology, 2021)
Where a name gives a salt, the structure may show the parent alone. This is one part of the list. Single values of this set are uncertain.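 Optical density at 600 nm measured yeast growth. Because the two-hybrid strains grew without histidine, growth required Pex3–Pex19 binding. Trypanosome selectivity meant a compound inhibited the trypanosome-pair strain's growth by more than 65% but the human-pair strain's by less than 65%.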

Each molecule was assayed on T. brucei Pex3-Pex19 interaction (yeast two-hybrid) (assay: growth inhibition of yeast two-hybrid strain reporting TbPex3-TbPex19 interaction, relative to DMSO; higher = stronger inhibition of T. brucei Pex3-Pex19 interaction / growth). Conditions: 100 µM; 24 h.

Compound	growth inhibition
CN(CC[C@@H](Oc1ccc(C(F)(F)F)cc1)c1ccccc1)CC(=O)[O-].[Li+]	60.2%
C=CCn1c(=O)c2c(nc(-c3ccc(S(=O)(=O)O)cc3)n2C)n(C)c1=O [1-Allyl-3,7-dimethyl-8-p-sulfophenylxanthine]	36.4%
O=C(NOCC1CC1)c1cc(Br)c(F)c(F)c1Nc1ccc(I)cc1Cl	37.4%
Cc1cn[nH]c1 [4-Methylpyrazole hydrochloride]	37.9%
C[N+](C)(C)CCOP(=O)(O)OP(=O)([O-])OC[C@H]1O[C@@H](n2ccc(N)nc2=O)[C@H](O)[C@@H]1O [Cytidine 5'-diphosphocholine sodium salt hydrate]	58.3%
OC[C@H]1O[C@@H](n2cnc3c(NC4CCCC4)ncnc32)[C@H](O)[C@@H]1O [N6-Cyclopentyladenosine]	56.6%
O=C(CCc1ccncc1)NNC(=O)N1Cc2ccccc2Oc2ccc(Cl)cc21	66.3%
CN(C)CCN(Cc1cccs1)c1ccccn1 [Methapyrilene hydrochloride]	55.9%
COc1ccc(Cl)cc1C(=O)NCCc1ccc(S(=O)(=O)NC(=O)NC2CCCCC2)cc1 [Glybenclamide]	27.9%
CSc1ccc2c(c1)C(N1CCN(C)CC1)Cc1ccccc1S2 (centres undefined) [Methiothepin mesylate]	49.8%
CC(C)NC[C@H](O)COc1cccc2[nH]ccc12 [S(-)-Pindolol]	59.8%
C=CCc1ccccc1OCC(O)CNC(C)C (centres undefined) [Alprenolol hydrochloride]	-24.9%
CC(C)(C)c1ccc(C(O)CCCN2CCC(C(O)(c3ccccc3)c3ccccc3)CC2)cc1 (centres undefined) [Terfenadine]	71.4%
CC[C@]1(O)C[C@H]2CN(CCc3c([nH]c4ccccc34)[C@@](C(=O)OC)(c3cc4c(cc3OC)N(C=O)[C@H]3[C@@](O)(C(=O)OC)[C@H](OC(C)=O)[C@]5(CC)C=CCN6CC[C@]43[C@@H]65)C2)C1 [Vincristine sulfate]	53.6%
CC(C)OC(=O)C(C)(C)Oc1ccc(C(=O)c2ccc(Cl)cc2)cc1 [Fenofibrate]	50.3%
COC(=O)C1=C(C)NC(C)=C(C(=O)OCCN(C)Cc2ccccc2)C1c1cccc([N+](=O)[O-])c1 (centres undefined) [Nicardipine hydrochloride]	51.8%
N[C@@H](Cc1ccc(O)c(O)c1)C(=O)O [L-3,4-Dihydroxyphenylalanine]	60%

Arranged by count of non-hydrogen atoms (descending): part of the list above.
Compound	growth inhibition
CC[C@]1(O)C[C@H]2CN(CCc3c([nH]c4ccccc34)[C@@](C(=O)OC)(c3cc4c(cc3OC)N(C=O)[C@H]3[C@@](O)(C(=O)OC)[C@H](OC(C)=O)[C@]5(CC)C=CCN6CC[C@]43[C@@H]65)C2)C1 [Vincristine sulfate]	53.6%
COC(=O)C1=C(C)NC(C)=C(C(=O)OCCN(C)Cc2ccccc2)C1c1cccc([N+](=O)[O-])c1 (centres undefined) [Nicardipine hydrochloride]	51.8%
COc1ccc(Cl)cc1C(=O)NCCc1ccc(S(=O)(=O)NC(=O)NC2CCCCC2)cc1 [Glybenclamide]	27.9%
C[N+](C)(C)CCOP(=O)(O)OP(=O)([O-])OC[C@H]1O[C@@H](n2ccc(N)nc2=O)[C@H](O)[C@@H]1O [Cytidine 5'-diphosphocholine sodium salt hydrate]	58.3%
O=C(CCc1ccncc1)NNC(=O)N1Cc2ccccc2Oc2ccc(Cl)cc21	66.3%
CC(C)OC(=O)C(C)(C)Oc1ccc(C(=O)c2ccc(Cl)cc2)cc1 [Fenofibrate]	50.3%
CSc1ccc2c(c1)C(N1CCN(C)CC1)Cc1ccccc1S2 (centres undefined) [Methiothepin mesylate]	49.8%
CN(C)CCN(Cc1cccs1)c1ccccn1 [Methapyrilene hydrochloride]	55.9%
N[C@@H](Cc1ccc(O)c(O)c1)C(=O)O [L-3,4-Dihydroxyphenylalanine]	60%
Cc1cn[nH]c1 [4-Methylpyrazole hydrochloride]	37.9%

Later entries

Compound	growth inhibition
CC(=O)NC[C@H]1CN(c2ccc(N3CCOCC3)c(F)c2)C(=O)O1 [Linezolid]	63.7%
C[C@]12CCC(=O)C=C1CC[C@@H]1[C@@H]2C(=O)C[C@@]2(C)[C@H]1CC[C@]2(O)C(=O)CO [Cortisone]	31.3%
CN1C2CCCC1CC(NC(=O)c1nn(C)c3ccccc13)C2 (centres undefined) [Granisetron hydrochloride]	63.5%
Nc1nc(N)c2nc(-c3ccccc3)c(N)nc2n1 [Triamterene]	36.9%
Cc1cn(C2C=CC(CO)O2)c(=O)[nH]c1=O (centres undefined) [2',3'-didehydro-3'-deoxythymidine]	60%
CCCc1nn(C)c2c(=O)[nH]c(-c3cc(S(=O)(=O)N4CCN(C)CC4)ccc3OCC)nc12 [Sildenafil citrate salt]	55.8%
COc1ccc(C2CNC(=O)C2)cc1OC1CCCC1 (centres undefined) [Rolipram]	54.5%
Oc1ccccc1O [Pyrocatechol]	59.5%
NC/C=C/C(=O)O [(E)-4-amino-2-butenoic acid]	58.1%
O=C(O)[C@H](CC(=O)N1C[C@H]2CCCC[C@H]2C1)Cc1ccccc1 [Mitiglinide calcium]	67.6%
CC(C)NC[C@H](O)COc1ccc(CC(N)=O)cc1 [S(-)-Atenolol]	54.5%
COC(=O)C1=C(C)NC(C)=C(C(=O)OC(C)(C)CN(C)CCC(c2ccccc2)c2ccccc2)C1c1cccc([N+](=O)[O-])c1 (centres undefined) [Lercanidipine hydrochloride hemihydrate]	35.5%
CCCCS(=N)(=O)CCC(N)C(=O)O (racemic) [DL-Buthionine-[S,R]-sulfoximine]	33.6%
COc1ccccc1N1CCN(CC(O)COc2cccc3ccccc23)CC1 (centres undefined) [Naftopidil dihydrochloride]	47.5%
N[C@H](CO)C(=O)O [D-Serine]	66.8%
O=C(O)C1CCCNC1 (racemic) [(±)-Nipecotic acid]	59.6%
Nc1ccc(CCNc2ncnc3c2ncn3C2OC(CO)C(O)C2O)cc1 (centres undefined) [N6-2-(4-Aminophenyl)ethyladenosine]	60.3%
